This test deals with cytochrome C (human) (UniProt P99999). Kind of test: in situ proximity ligation assay in HTR-8/SVneo cells in hypoxia, with and without 50 nM irisin.

Sequences of proteins named here, by UniProt entry; tags and fusion partners are left off. Residues count along the entry.
UniProt P99999, residues 2-105: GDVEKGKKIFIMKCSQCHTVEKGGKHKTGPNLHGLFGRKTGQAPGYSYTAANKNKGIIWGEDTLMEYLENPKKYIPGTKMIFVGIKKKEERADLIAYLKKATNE
UniProt O14727: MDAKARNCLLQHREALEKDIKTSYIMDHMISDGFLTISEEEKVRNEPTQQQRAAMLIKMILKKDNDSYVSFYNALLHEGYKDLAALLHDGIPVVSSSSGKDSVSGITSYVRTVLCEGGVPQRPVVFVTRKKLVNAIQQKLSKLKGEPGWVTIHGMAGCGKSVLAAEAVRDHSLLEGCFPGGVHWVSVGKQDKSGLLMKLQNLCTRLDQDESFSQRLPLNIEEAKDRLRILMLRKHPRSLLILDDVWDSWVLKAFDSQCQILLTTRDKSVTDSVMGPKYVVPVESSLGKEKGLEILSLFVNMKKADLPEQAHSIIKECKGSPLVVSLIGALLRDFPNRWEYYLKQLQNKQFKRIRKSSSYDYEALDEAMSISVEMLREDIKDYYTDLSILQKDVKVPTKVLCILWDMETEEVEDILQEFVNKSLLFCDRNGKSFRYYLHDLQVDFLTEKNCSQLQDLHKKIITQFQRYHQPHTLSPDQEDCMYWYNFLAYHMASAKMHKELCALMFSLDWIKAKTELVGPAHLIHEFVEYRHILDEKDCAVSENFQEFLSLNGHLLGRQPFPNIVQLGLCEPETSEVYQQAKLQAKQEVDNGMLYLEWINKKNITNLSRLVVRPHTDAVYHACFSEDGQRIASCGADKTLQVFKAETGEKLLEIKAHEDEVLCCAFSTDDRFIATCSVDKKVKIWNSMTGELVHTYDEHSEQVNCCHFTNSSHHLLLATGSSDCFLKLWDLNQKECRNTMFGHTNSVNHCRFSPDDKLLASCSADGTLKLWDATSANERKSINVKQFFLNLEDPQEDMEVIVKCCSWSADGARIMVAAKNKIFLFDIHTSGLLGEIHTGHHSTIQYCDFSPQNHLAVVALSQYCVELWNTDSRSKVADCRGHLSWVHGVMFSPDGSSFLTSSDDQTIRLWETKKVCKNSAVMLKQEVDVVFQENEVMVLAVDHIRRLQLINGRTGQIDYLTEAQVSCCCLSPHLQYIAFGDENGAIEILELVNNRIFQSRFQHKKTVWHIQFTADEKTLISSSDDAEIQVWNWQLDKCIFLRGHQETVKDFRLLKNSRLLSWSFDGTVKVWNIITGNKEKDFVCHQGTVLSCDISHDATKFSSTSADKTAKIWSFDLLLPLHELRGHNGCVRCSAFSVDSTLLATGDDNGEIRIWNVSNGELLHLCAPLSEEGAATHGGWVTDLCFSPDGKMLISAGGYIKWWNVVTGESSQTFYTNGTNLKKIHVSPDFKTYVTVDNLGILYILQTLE

No constants are given. Whether binding was seen depends on the method and setting. Binding seen in cells or lysates may run through a third protein. Some results given as binding are weak or reduced against the parent protein; the word gives no strength.

Consider 1 substance from patent publication US20220152158A1.

Take APAF1 (from UniProt O14727 1-1248): the binding entry was “binds”.
